# Measurements from PubChem BioAssay AID248 (DTP/NCI, 2004).
# The list shows only some results of the screen, not a fair sample: it is rich in T/C values a quarter to a half above the control, in often repeated tests (any T/C) and in doses without a T/C. Further doses and runs are listed elsewhere. T/C gives the treated animals as a percentage of the vehicle group. Some entries give survivors of the animals treated and no T/C: the source holds a T/C of zero for them, seemingly a mark for toxic or unscored doses. Some survivor counts are full or nearly so, which does not show that the dose was tolerated: survival well below the control is almost never listed, so the zero probably covers shortened survival too. Survivors were counted at the toxicity check, usually on the fifth day, unless a day is given; later deaths do not show. Schedules are NCI's codes, read here as Q, the interval in days (D) or hours (H), X, the number of doses. Some schedule codes hold Z or #, which are not explained here. Some entries hold several experiments; the values are given in rising order. Where survival is the endpoint, the PubChem record calls one and a half times the control and up active, and a quarter to a half above the control has no call in these data; cut-offs in other NCI protocols can differ.
# Test system: L1210 leukemia ip in BDF1 mice, survival T/C
# Assay: NCI In Vivo Anticancer Drug Screen. Data for tumor model L1210 Leukemia (intraperitoneal) in B6D2F1 (BDF1) mice
# Conditions: T/C endpoint: mean survival time, higher T/C = longer survival; for T/C: vehicle: water
# [1] = dose: 200.0 mg/kg/injection, schedule: Q04DX003 (ip), vehicle: Klucel (hydroxypropylcellulose) (HPC)
# [2] = dose: 400.0 mg/kg/injection, schedule: Q04DX003 (ip), vehicle: Klucel (hydroxypropylcellulose) (HPC)
# [3] = dose: 400.0 mg/kg/injection, schedule: Q01DX001 (ip), vehicle: saline
# [4] = dose: 400.0 mg/kg/injection, schedule: Q01DX009 (ip), vehicle: Klucel (hydroxypropylcellulose) (HPC)
# [5] = dose: 200.0 mg/kg/injection, schedule: Q04DX002 (ip), vehicle: saline
# [6] = dose: 400.0 mg/kg/injection, schedule: Q01DX009 (ip), vehicle: saline with Tween-80
# [7] = dose: 200.0 mg/kg/injection, schedule: Q01DX009 (ip), vehicle: saline with Tween-80
# [8] = dose: 100.0 mg/kg/injection, schedule: Q04DX003 (ip), vehicle: Klucel (hydroxypropylcellulose) (HPC)
smiles,measurement,setting,value
COc1cccc(NC(=S)C(C#N)C(=O)Nc2cccc(C(F)(F)F)c2)c1 (stereo not given),survivor count,"dose: 200.0 mg/kg/injection, schedule: Q04DX002 (ip), vehicle: gum acacia",0 of 3
same,survivor count,"dose: 400.0 mg/kg/injection, schedule: Q04DX002 (ip), vehicle: gum acacia",0 of 3
CC1(C)N=C(N)N=C(N)N1c1ccc(CCNC(=O)c2ccc(S(=O)(=O)F)cc2)cc1,survivor count,"dose: 100.0 mg/kg/injection, schedule: Q01DX001 (ip), vehicle: Klucel (hydroxypropylcellulose) (HPC)",2 of 6
same,survivor count,"dose: 200.0 mg/kg/injection, schedule: Q01DX001 (ip), vehicle: Klucel (hydroxypropylcellulose) (HPC)",2 of 6
same,survivor count,"dose: 400.0 mg/kg/injection, schedule: Q01DX001 (ip), vehicle: Klucel (hydroxypropylcellulose) (HPC)",1 of 6
COC(=O)C1C2CC3c4[nH]c5cc(OC)ccc5c4CCN3CC2CC(OC2CCCCO2)C1OC (stereo not given),survivor count,[1],2 of 4
same,survivor count,[2],4 of 4
CC(C)NCCCN,survivor count,"dose: 200.0 mg/kg/injection, schedule: Q04DX002 (ip), vehicle: saline with Tween-80",3 of 3
same,survivor count,[3],0 of 4
same,survivor count,"dose: 400.0 mg/kg/injection, schedule: Q04DX002 (ip), vehicle: saline with Tween-80",0 of 3
COc1c2ccoc2nc2c(OC)c(OCC(O)C(C)(C)O)ccc12 (stereo not given),survivor count,"dose: 200.0 mg/kg/injection, schedule: Q01DX Z (ip), vehicle: carboxymethylcellulose (CMC)",2 of 6
NCCCCCCNC(=O)CCCCC(=O)NCCCCCCN,survivor count,"dose: 128.0 mg/kg/injection, schedule: Q01DX Z (ip), vehicle: saline",5 of 6
same,survivor count,"dose: 256.0 mg/kg/injection, schedule: Q01DX Z (ip), vehicle: saline",0 of 6
CCN(CC)CCCC(C)Nc1cc(N)c2ncc(-c3ccc(Cl)cc3)nc2n1 (stereo not given),survivor count,"dose: 300.0 mg/kg/injection, schedule: Q01DX001 (ip), vehicle: saline",1 of 6
COc1ccc(OC(=O)Nc2ccc(Cl)cc2OC)cc1,survivor count,[4],6 of 6
NCCNCCNCCN1CC1,survivor count,"dose: 40.0 mg/kg/injection, schedule: Q04DX002 (ip), vehicle: saline",0 of 3
same,survivor count,"dose: 100.0 mg/kg/injection, schedule: Q04DX002 (ip), vehicle: saline",0 of 3
same,survivor count,[5],0 of 3
same,survivor count,"dose: 400.0 mg/kg/injection, schedule: Q04DX002 (ip), vehicle: saline",0 of 3
O=[N+]([O-])c1ccc2[nH]c(=S)sc2c1,survivor count,"dose: 100.0 mg/kg/injection, schedule: Q01DX009 (ip), vehicle: Klucel (hydroxypropylcellulose) (HPC)",2 of 6
CCOC(=O)N1c2ccccc2C=CC1/C(N)=N/O (stereo not given),survivor count,"dose: 200.0 mg/kg/injection, schedule: Q01DX009 (ip), vehicle: Klucel (hydroxypropylcellulose) (HPC)",2 of 6
same,survivor count,[2],2 of 6
CCN(CC)C(N)=Nc1ccc(NC(=O)c2ccc(C(=O)Nc3ccc(N=C(N)N(CC)CC)cc3)cc2)cc1,T/C,"dose: 3.7 mg/kg/injection, schedule: Q01DX Z (ip)",136 % of control
same,T/C,"dose: 13.0 mg/kg/injection, schedule: Q01DX Z (ip)",139 % of control
C=CCc1cccc(OC)c1OCCN(CC)CC,survivor count,"dose: 100.0 mg/kg/injection, schedule: Q01DX009 (ip), vehicle: saline",0 of 6
same,survivor count,"dose: 200.0 mg/kg/injection, schedule: Q01DX009 (ip), vehicle: saline",0 of 6
same,survivor count,"dose: 400.0 mg/kg/injection, schedule: Q01DX009 (ip), vehicle: saline",0 of 6
O=CCSC(=S)NNc1ccccc1,survivor count,[4],3 of 6
C=CC(=O)O (tested in a mixture with another compound),survivor count,"dose: 200.0 mg/kg/injection, schedule: Q01DX Z (ip), vehicle: saline",0 of 6
C=CSc1ccccc1,survivor count,[6],5 of 6
N#CC(OS(=O)(=O)c1ccccc1)c1ccccc1 (stereo not given),survivor count,"dose: 400.0 mg/kg/injection, schedule: Q01DX001 (ip), vehicle: other",1 of 4
O=C(NCc1cnccn1)Oc1ccc([N+](=O)[O-])cc1,survivor count,[7],3 of 6
O=C(Nc1ccc([N+](=O)[O-])cc1Cl)c1cc(Cl)ccc1O,survivor count,"dose: 400.0 mg/kg/injection, schedule: Q04DX002 (ip), vehicle: Klucel (hydroxypropylcellulose) (HPC)",3 of 3
CC1(C)N=C(N)N=C(N)N1c1ccc(CCc2ccccc2)cc1,survivor count,"dose: 50.0 mg/kg/injection, schedule: Q01DX009 (ip), vehicle: Klucel (hydroxypropylcellulose) (HPC)",3 of 6
same,survivor count,[8],5 of 6
CC[CH2][Sn]([Cl])([Cl])[CH2]CC,survivor count,"dose: 4.0 mg/kg/injection, schedule: Q01DX009 (ip), vehicle: saline",3 of 6
same,survivor count,"dose: 5.9 mg/kg/injection, schedule: Q01DX009 (ip), vehicle: saline",0 of 6
same,survivor count,"dose: 9.0 mg/kg/injection, schedule: Q01DX009 (ip), vehicle: saline",0 of 6
same,survivor count,"dose: 13.0 mg/kg/injection, schedule: Q01DX009 (ip), vehicle: saline",0 of 6
Cc1c(O)ccc(C(=O)CCl)c1O,survivor count,"dose: 12.0 mg/kg/injection, schedule: Q01DX009 (ip), vehicle: saline with Tween-80",3 of 6
same,survivor count,"dose: 50.0 mg/kg/injection, schedule: Q01DX009 (ip), vehicle: saline with Tween-80",2 of 6 and 5 of 6
same,survivor count,"dose: 100.0 mg/kg/injection, schedule: Q01DX009 (ip), vehicle: saline with Tween-80",3 of 6
same,survivor count,[7],3 of 6
same,survivor count,[6],0 of 6
same,survivor count,[2],1 of 6
O=C(O)C(Br)C(Br)C(=O)Nc1cccc(C(F)(F)F)c1 (stereo not given),survivor count,"dose: 200.0 mg/kg/injection, schedule: Q01DX009 (ip), vehicle: other",2 of 6
same,survivor count,"dose: 400.0 mg/kg/injection, schedule: Q01DX009 (ip), vehicle: other",0 of 6
CCN(CC[n+]1ccccc1)c1ccccc1 (tested in a mixture with another compound),survivor count,"dose: 100.0 mg/kg/injection, schedule: Q01DX001 (ip), vehicle: saline",0 of 4
same,survivor count,"dose: 200.0 mg/kg/injection, schedule: Q01DX001 (ip), vehicle: saline",0 of 4
same,survivor count,[3],0 of 4
O=C(COc1ccc(Cl)cc1Cl)Nc1ccc2ccccc2c1,survivor count,[5],3 of 3
CC(=O)NC1CCCC(C)N1 (stereo not given),survivor count,[3],0 of 6
Clc1cc(CBr)c(Cl)c(Cl)c1CBr,survivor count,[8],0 of 6
same,survivor count,[1],0 of 6
same,survivor count,[2],1 of 6
